PubChem BioAssay AID504786, Drosophila RNAi Screening Center – 2011

- Purpose: 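Knock-downs reducing HIF reporter induction by the iron chelator DFO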 (primary screen)
- Cell system: Drosophila S2 cells with a stable HIF luciferase reporter
- Reagent: long dsRNA against Drosophila genes, about 0.2 µg dsRNA per well of a 384-well plate
- Time to read-out: three days of knock-down, then 20 h of DFO before reading
- Treatment: desferrioxamine (DFO) at 100 µM, an iron chelator that mimics hypoxia, for 20 h
- Measured: 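HIF reporter luminescence in cells given 100 µM DFO for 20 h, using the mouse ldh-a hypoxia-response element, scored as per-plate z-scores; higher means greater loss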
- Reading the numbers: z-score: higher = stronger loss of HIF reporter signal
In all, the deposit lists about 21,000 reagents; below is an unselected part of those that have a named target and a result. 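Primary screen; positive scores mean lost reporter signal, so the sign may be inverted from the usual convention.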 Names joined by + are all predicted targets of the reagent. Further read-outs or replicates are left out here.

After knock-down of CG8516 [DRSC16437], the record shows z-score, replicate 1 = -0.3.
With knock-down of CG14074 [DRSC10079], the record shows z-score, replicate 1 = 0.
Silencing of CG10747 [DRSC02104] gave: z-score, replicate 1 = -0.3.
Depletion of CG3337 [DRSC15478] came out at: z-score, replicate 1 = -0.4.
After knock-down of Ndf (Nucleosome-destabilizing factor) [DRSC02775], the record shows z-score, replicate 1 = -0.3.
CG16704 [DRSC00475] gave z-score, replicate 1 = -0.3.
With knock-down of CG31550 [DRSC12197] the results were z-score, replicate 1 = -0.2.
CG31550 [DRSC12198] gave z-score, replicate 1 = -0.3.
Silencing of Gsc (Goosecoid) [DRSC00755] gave: z-score, replicate 1 = 0.
Against CG13024 [DRSC09904], the values are z-score, replicate 1 = -0.3.
CG31391 [DRSC16047] gave z-score, replicate 1 = -0.1.
After knock-down of CG6472 [DRSC06989] the results were z-score, replicate 1 = -0.2.
Knock-down of CG17304 (retired record) [DRSC15222] gave: z-score, replicate 1 = 4.1.
For vap (vacuolar peduncle) [DRSC20275], the entry reads z-score, replicate 1 = -0.3.
Against Lsp1alpha (Larval serum protein 1 alpha) [DRSC20258] the deposit lists z-score, replicate 1 = -0.2.
CG14089 [DRSC10093] showed z-score, replicate 1 = -0.2.
Knock-down of CG31462 (retired record) [DRSC14359] gave: z-score, replicate 1 = -0.3.
Depletion of CG7264 [DRSC10793] came out at: z-score, replicate 1 = -0.1.
Silencing of CG4611 [DRSC10434] gave: z-score, replicate 1 = -0.4.
Against PolE4 (DNA polymerase epsilon subunit 4) [DRSC04105], the values are z-score, replicate 1 = -0.2.
CG6937 [DRSC16140] showed z-score, replicate 1 = 2.8.
CG34026 [DRSC17616] gave z-score, replicate 1 = -0.3.
After knock-down of CG9410 + CG15908 [DRSC04976] the results were z-score, replicate 1 = -0.2.
Knock-down of CG9410 + CG15908 [DRSC05001] resulted in: z-score, replicate 1 = -0.4.
After knock-down of CG30065 [DRSC05420], the record shows z-score, replicate 1 = -0.1.
Against CG14913 [DRSC02397] the deposit lists z-score, replicate 1 = -0.2.
With knock-down of tok (tolkin) [DRSC17087], the screen gave z-score, replicate 1 = -0.2.
Silencing of CG13694 [DRSC00363] resulted in: z-score, replicate 1 = -0.1.
Silencing of flz (filzig) [DRSC07109] resulted in: z-score, replicate 1 = -0.4.
After knock-down of Ced-12 [DRSC02840], the record shows z-score, replicate 1 = -0.2.
mthl7 (methuselah-like 7) [DRSC10852] showed z-score, replicate 1 = 0.
Silencing of ovo [DRSC18050] gave: z-score, replicate 1 = -0.3.
With knock-down of ovo [DRSC18812] the results were z-score, replicate 1 = -0.3.
After knock-down of CG13590 [DRSC04226] the results were z-score, replicate 1 = -0.1.
MESK2 (Misexpression suppressor of KSR 2) [DRSC04258] showed z-score, replicate 1 = -0.3.
Against E(spl)m3-HLH (Enhancer of split m3, helix-loop-helix) [DRSC16694], the entry reads z-score, replicate 1 = -0.4.
Silencing of Gart (GART trifunctional enzyme) [DRSC03481] resulted in: z-score, replicate 1 = -0.2.
Against Ubc7 (Ubiquitin conjugating enzyme 7) [DRSC20299], the values are z-score, replicate 1 = -0.5.
After knock-down of CG5646 [DRSC15853], the record shows z-score, replicate 1 = -0.4.
Against kek3 (kekkon 3) [DRSC03553], the entry reads z-score, replicate 1 = -0.3.
Silencing of TwdlE (TweedleE) [DRSC02392] gave: z-score, replicate 1 = -0.3.
After knock-down of Strn-Mlck (Stretchin-Mlck) [DRSC05032], the screen gave z-score, replicate 1 = -0.2.
Silencing of Strn-Mlck (Stretchin-Mlck) [DRSC05598] came out at: z-score, replicate 1 = -1.4.
Strn-Mlck (Stretchin-Mlck) [DRSC07471] gave z-score, replicate 1 = -0.3.
Silencing of Elba3 (Early boundary activity 3) [DRSC00469] came out at: z-score, replicate 1 = -0.3.
After knock-down of CG30271 [DRSC04170] the results were z-score, replicate 1 = -0.4.
For CG34005 [DRSC05700], the values are z-score, replicate 1 = -0.4.
Knock-down of msk (moleskin) [DRSC11340] gave: z-score, replicate 1 = 0.4.
Knock-down of Smyd3 (SET and MYND domain containing, class 3) [DRSC17744] came out at: z-score, replicate 1 = -0.3.
Knock-down of Sem1 (Suppressor of exocyst mutations 1) [DRSC02282] resulted in: z-score, replicate 1 = 1.3.
CG31345 [DRSC14193] scored z-score, replicate 1 = 0.3.
Knock-down of CG31345 [DRSC14847] came out at: z-score, replicate 1 = -0.3.

7 entries already listed, arranged by “z-score, replicate 1”, ascending.
CG16704 [DRSC00475] → z-score, replicate 1: -0.3
CG31550 [DRSC12198] → z-score, replicate 1: -0.3
CG13024 [DRSC09904] → z-score, replicate 1: -0.3
CG31550 [DRSC12197] → z-score, replicate 1: -0.2
CG6472 [DRSC06989] → z-score, replicate 1: -0.2
CG31391 [DRSC16047] → z-score, replicate 1: -0.1
Gsc (Goosecoid) [DRSC00755] → z-score, replicate 1: 0
